Data as given in article PMC6746701, “A phyB-PIF1-SPA1 kinase regulatory complex promotes photomorphogenesis in Arabidopsis” (Nature Communications, 2019).
Results are given in words; binding and its absence hold for the method and conditions named. For part of these data: Binding seen in cells or lysates may run through a third protein. Some results given as binding are weak or reduced against the parent protein; the word gives no strength. Sequences can lack the tags named with a protein. Blank lines part the entries; values can stand above or below the binder they belong to.

Amino acid sequences for entries named in this document (tags omitted). A change or cut given only in a name is not applied to a line headed by its entry. Chains listed by the source or under a name are the forms on record and can include a tag or linker. Residues count along the entry.
UniProt P14713: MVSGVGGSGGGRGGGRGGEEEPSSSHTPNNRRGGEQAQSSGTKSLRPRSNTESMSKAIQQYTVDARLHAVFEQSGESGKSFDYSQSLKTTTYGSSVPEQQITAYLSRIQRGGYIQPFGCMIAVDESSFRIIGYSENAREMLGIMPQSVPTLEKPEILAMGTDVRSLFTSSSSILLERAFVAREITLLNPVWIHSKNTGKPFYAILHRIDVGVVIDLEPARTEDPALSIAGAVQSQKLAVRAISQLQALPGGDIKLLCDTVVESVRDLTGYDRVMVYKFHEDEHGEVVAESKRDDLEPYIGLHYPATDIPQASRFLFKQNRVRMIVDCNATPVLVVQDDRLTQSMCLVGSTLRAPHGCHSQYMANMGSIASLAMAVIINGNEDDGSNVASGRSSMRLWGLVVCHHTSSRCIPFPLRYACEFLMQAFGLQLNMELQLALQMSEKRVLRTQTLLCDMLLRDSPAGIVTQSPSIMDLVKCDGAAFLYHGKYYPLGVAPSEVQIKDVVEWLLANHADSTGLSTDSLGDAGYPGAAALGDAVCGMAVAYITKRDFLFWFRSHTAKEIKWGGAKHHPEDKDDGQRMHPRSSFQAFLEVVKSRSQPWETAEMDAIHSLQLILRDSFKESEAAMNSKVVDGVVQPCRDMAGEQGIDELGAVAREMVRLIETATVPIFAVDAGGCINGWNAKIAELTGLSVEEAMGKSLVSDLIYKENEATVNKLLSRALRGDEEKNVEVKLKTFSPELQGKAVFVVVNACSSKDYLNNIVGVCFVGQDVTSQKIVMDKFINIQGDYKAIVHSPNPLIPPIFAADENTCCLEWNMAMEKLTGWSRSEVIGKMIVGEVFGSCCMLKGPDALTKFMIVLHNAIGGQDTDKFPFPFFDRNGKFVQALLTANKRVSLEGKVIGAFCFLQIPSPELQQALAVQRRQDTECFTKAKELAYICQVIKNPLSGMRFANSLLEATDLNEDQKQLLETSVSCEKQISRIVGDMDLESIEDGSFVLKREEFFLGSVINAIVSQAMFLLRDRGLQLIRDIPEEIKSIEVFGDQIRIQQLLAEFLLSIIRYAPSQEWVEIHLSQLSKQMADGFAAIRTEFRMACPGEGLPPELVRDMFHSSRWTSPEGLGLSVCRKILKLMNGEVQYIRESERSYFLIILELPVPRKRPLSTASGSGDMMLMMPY
phyB-GFP ΔC (1-1092) (from transgenic Arabidopsis): residues 1-1092 of P14713
LexA-PHYB CT (aa 625-1172): residues 625-1172 of P14713
extreme C-terminal (C) domain of phyB fused to BD vector: residues 1093-1172 of P14713

Columns and labels:
[1] = biological target: T1, phyA holo-phytochrome purified from Saccharomyces cerevisiae (Arabidopsis) (UniProt P14712); test: pull-down; in vitro: phytochromes purified from yeast (S. cerevisiae) and GST-PIF1; light-dependent; both purified
T1 sequence (chain, holo-phytochrome (chromophore bound)): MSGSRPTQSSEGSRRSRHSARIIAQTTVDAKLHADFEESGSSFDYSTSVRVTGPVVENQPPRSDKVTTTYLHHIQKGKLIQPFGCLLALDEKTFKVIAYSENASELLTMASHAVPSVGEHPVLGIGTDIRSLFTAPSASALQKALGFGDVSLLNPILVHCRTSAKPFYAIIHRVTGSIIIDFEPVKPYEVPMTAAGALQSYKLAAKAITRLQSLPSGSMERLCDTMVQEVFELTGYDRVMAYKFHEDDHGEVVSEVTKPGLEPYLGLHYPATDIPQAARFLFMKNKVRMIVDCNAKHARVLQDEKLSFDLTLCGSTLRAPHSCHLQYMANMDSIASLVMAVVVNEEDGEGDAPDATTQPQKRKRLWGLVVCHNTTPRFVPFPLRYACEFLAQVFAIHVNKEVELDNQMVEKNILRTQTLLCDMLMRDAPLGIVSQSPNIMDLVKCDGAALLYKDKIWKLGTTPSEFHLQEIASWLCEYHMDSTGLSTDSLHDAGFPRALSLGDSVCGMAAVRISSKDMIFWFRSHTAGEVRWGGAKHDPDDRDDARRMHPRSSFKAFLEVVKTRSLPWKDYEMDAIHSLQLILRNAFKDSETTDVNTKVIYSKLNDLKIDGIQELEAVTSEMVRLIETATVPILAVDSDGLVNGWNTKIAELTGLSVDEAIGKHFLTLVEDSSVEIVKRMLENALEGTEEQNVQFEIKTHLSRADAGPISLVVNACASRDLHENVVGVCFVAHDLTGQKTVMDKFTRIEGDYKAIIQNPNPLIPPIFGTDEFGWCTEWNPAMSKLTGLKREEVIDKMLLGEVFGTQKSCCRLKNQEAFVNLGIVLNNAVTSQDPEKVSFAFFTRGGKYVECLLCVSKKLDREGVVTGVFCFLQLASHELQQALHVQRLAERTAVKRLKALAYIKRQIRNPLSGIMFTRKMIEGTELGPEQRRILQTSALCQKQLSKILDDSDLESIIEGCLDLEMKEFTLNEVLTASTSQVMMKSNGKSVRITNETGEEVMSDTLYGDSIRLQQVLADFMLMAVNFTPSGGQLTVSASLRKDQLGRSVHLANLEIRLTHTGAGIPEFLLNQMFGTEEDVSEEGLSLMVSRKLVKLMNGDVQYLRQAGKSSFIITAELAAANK

[2] = biological target: phyB-GFP FL (from transgenic Arabidopsis) (Arabidopsis) (UniProt P14713); test: co-IP; in vivo; extracts of 4-day-old dark-grown transgenic seedlings kept dark or given red light; anti-HA or anti-GFP antibody on Dynabeads, 2 h at 4 °C in the dark; 50 mM Tris pH 7.5, 150 mM NaCl, 0.1% Tween-20; immunoblot
[3] = biological target: phyB-GFP ΔC (1-1092) (from transgenic Arabidopsis) (Arabidopsis) (UniProt P14713); test: as above
PIF1-HA (Arabidopsis) = biological target: T2, PIF1-HA (Arabidopsis) (UniProt Q8GZM7); test: as above
T2 sequence: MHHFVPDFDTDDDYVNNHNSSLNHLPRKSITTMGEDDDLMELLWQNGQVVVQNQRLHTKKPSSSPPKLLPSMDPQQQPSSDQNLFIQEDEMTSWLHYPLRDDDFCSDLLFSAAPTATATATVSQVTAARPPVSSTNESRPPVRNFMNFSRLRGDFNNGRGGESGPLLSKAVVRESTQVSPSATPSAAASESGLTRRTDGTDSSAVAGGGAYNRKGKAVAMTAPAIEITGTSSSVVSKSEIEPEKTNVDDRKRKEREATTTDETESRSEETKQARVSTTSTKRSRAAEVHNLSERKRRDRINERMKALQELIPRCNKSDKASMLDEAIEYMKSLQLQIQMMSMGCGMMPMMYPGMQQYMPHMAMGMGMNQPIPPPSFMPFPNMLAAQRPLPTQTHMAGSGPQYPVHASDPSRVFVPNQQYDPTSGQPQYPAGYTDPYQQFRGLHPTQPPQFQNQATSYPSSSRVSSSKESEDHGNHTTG

[4] = biological target: LexA-PHYB CT (aa 625-1172) (Arabidopsis) (UniProt P14713); test: two-hybrid; LexA (BD) baits and AD preys in yeast EGY48; β-galactosidase activity normalised by the AD empty vector
[5] = biological target: extreme C-terminal (C) domain of phyB fused to BD vector (Arabidopsis) (UniProt P14713); test: as above

binding [1]: binds
B1: GST-PIF1-strep (natural protein, Arabidopsis, UniProt Q8GZM7 1-478, looked up)
chain: MHHFVPDFDTDDDYVNNHNSSLNHLPRKSITTMGEDDDLMELLWQNGQVVVQNQRLHTKKPSSSPPKLLPSMDPQQQPSSDQNLFIQEDEMTSWLHYPLRDDDFCSDLLFSAAPTATATATVSQVTAARPPVSSTNESRPPVRNFMNFSRLRGDFNNGRGGESGPLLSKAVVRESTQVSPSATPSAAASESGLTRRTDGTDSSAVAGGGAYNRKGKAVAMTAPAIEITGTSSSVVSKSEIEPEKTNVDDRKRKEREATTTDETESRSEETKQARVSTTSTKRSRAAEVHNLSERKRRDRINERMKALQELIPRCNKSDKASMLDEAIEYMKSLQLQIQMMSMGCGMMPMMYPGMQQYMPHMAMGMGMNQPIPPPSFMPFPNMLAAQRPLPTQTHMAGSGPQYPVHASDPSRVFVPNQQYDPTSGQPQYPAGYTDPYQQFRGLHPTQPPQFQNQATSYPSSSRVSSSKESEDHGNHTTG
notes: source: E. coli BL21(DE3), purified (Strep-Tactin Sepharose); not shown: GST, N-terminal, kept; Strep tag, C-terminal, kept

binding [2]: binds | binding [3]: binds
B2: PIF1 in phyB-GFP FL and phyB-GFP ΔC plants (protein, UniProt Q8GZM7 1-478)
chain: MHHFVPDFDTDDDYVNNHNSSLNHLPRKSITTMGEDDDLMELLWQNGQVVVQNQRLHTKKPSSSPPKLLPSMDPQQQPSSDQNLFIQEDEMTSWLHYPLRDDDFCSDLLFSAAPTATATATVSQVTAARPPVSSTNESRPPVRNFMNFSRLRGDFNNGRGGESGPLLSKAVVRESTQVSPSATPSAAASESGLTRRTDGTDSSAVAGGGAYNRKGKAVAMTAPAIEITGTSSSVVSKSEIEPEKTNVDDRKRKEREATTTDETESRSEETKQARVSTTSTKRSRAAEVHNLSERKRRDRINERMKALQELIPRCNKSDKASMLDEAIEYMKSLQLQIQMMSMGCGMMPMMYPGMQQYMPHMAMGMGMNQPIPPPSFMPFPNMLAAQRPLPTQTHMAGSGPQYPVHASDPSRVFVPNQQYDPTSGQPQYPAGYTDPYQQFRGLHPTQPPQFQNQATSYPSSSRVSSSKESEDHGNHTTG

binding (PIF1-HA (Arabidopsis)): binds
B3: TAP-SPA1 (protein, UniProt Q9SYX2 1-1029)
chain: MPVMERVAEETVATNNIQLKARVDDVPCNKLDARHNDMVIQSETANSDCPGSSAHRNVDLTKPPPPEEAAGAKLSVEELTLGNYRIVQGSNNTNVDSPRAGKFEHLYRLARGSAFRAGDGDLDSQPRDMDQMLSRIRQQLAGAPSERQNLKPFMSRRSDQNLEAFSERLRAAGENSIMNAPALISEGVQMKTPVSSSNFSQLLLKRAMKGKGVVGKNQETPPEFVSDQDLGSKEKKLDISKSPTPHDVLPLKSSPKGNGMVSHGDGNHSKSSIGISLREFLRSSYAKREKRHGLCLFRQLVELVDSAHSKRLFLLDLRPSLFTLVPSKKLRYIGNFGKNDLESDVDEDLNRRRPVVEESSSGGRDSKKRKMDLHLNSPGNQLQATSTGRPFKRKSPVIDLNMVDARNPDSCELQQQDYIKNLSVSSVSRKQSMSTWLEEQWYTCPEEINGEDIGEKSNIYALGVLLFELLCHCESGEMHAAMMADLRHRILPPTFLSKYPKEAGFCLWLLHPEPSSRPSARDILKSELICEDDSVKSTAAAEEISELLLHFLSSLEVQKKKKASKLLQDIQTLEDDIKEAERRYSSNVSLVRSHGAIEKRVQSSPLDEHCTTSSALFVPTANTDRLMSNIRQLEDAYFFMRSQINLSSSAATARSDKTLKDRDRCSENQNENQDMSTKGKSSDQLEVFFEGLCKFARYSKFETCGTIRSGDLLNSASVVCSLSFDPDEEHIAAAGISKKIKIFDFNAFMNESVGVHYPLVEMVNKSKLSCVCWNSYIKNYLASTDYDGVVQIWDAGTGQGFSQYTEHQKRAWSVDFSPSDPTKFVSGSDDCSVKLWSINEKRSLGTIWSPANVCCVQFSSYSNHLLAFGSADYKVYCYDLRYVKTPWCTLAGHEKAVSYVKFMDSETIVSASTDNSLKLWNLNKTNSSGLSPGACSLTYKGHTNQKNFVGLSVLDGYIACGSETNEVYSYYKSLPMPMTSYKFGSVDPISGNEYFDDNGQFVSSVCWRKKSNMLVAANSTGNMKLLKLV

binding [4]: binds | binding [5]: binds
B4: AD-SPA1, full-length (prey of the LexA two-hybrid system) (protein, UniProt Q9SYX2 1-1029)
chain: MPVMERVAEETVATNNIQLKARVDDVPCNKLDARHNDMVIQSETANSDCPGSSAHRNVDLTKPPPPEEAAGAKLSVEELTLGNYRIVQGSNNTNVDSPRAGKFEHLYRLARGSAFRAGDGDLDSQPRDMDQMLSRIRQQLAGAPSERQNLKPFMSRRSDQNLEAFSERLRAAGENSIMNAPALISEGVQMKTPVSSSNFSQLLLKRAMKGKGVVGKNQETPPEFVSDQDLGSKEKKLDISKSPTPHDVLPLKSSPKGNGMVSHGDGNHSKSSIGISLREFLRSSYAKREKRHGLCLFRQLVELVDSAHSKRLFLLDLRPSLFTLVPSKKLRYIGNFGKNDLESDVDEDLNRRRPVVEESSSGGRDSKKRKMDLHLNSPGNQLQATSTGRPFKRKSPVIDLNMVDARNPDSCELQQQDYIKNLSVSSVSRKQSMSTWLEEQWYTCPEEINGEDIGEKSNIYALGVLLFELLCHCESGEMHAAMMADLRHRILPPTFLSKYPKEAGFCLWLLHPEPSSRPSARDILKSELICEDDSVKSTAAAEEISELLLHFLSSLEVQKKKKASKLLQDIQTLEDDIKEAERRYSSNVSLVRSHGAIEKRVQSSPLDEHCTTSSALFVPTANTDRLMSNIRQLEDAYFFMRSQINLSSSAATARSDKTLKDRDRCSENQNENQDMSTKGKSSDQLEVFFEGLCKFARYSKFETCGTIRSGDLLNSASVVCSLSFDPDEEHIAAAGISKKIKIFDFNAFMNESVGVHYPLVEMVNKSKLSCVCWNSYIKNYLASTDYDGVVQIWDAGTGQGFSQYTEHQKRAWSVDFSPSDPTKFVSGSDDCSVKLWSINEKRSLGTIWSPANVCCVQFSSYSNHLLAFGSADYKVYCYDLRYVKTPWCTLAGHEKAVSYVKFMDSETIVSASTDNSLKLWNLNKTNSSGLSPGACSLTYKGHTNQKNFVGLSVLDGYIACGSETNEVYSYYKSLPMPMTSYKFGSVDPISGNEYFDDNGQFVSSVCWRKKSNMLVAANSTGNMKLLKLV
